Experimental data: patent US20150258127A1, “METHODS FOR PREVENTING ANTIPHOSPHOLIPID SYNDROME (APS)” (INSERM (INSTITUT NATIONAL DE LA SANTÉ ET DE LA RECHERCHE …, priority 2012, published 2015)

Test system: P-AKT (Ser^473) (mTORC2) in human micro vascular endothelial cells (HMEC)
Assay: Western blot of P-AKT (Ser473) (mTORC2) in HMEC exposed to APA IgG
Format: cell-based
Conditions: HMEC pretreated one hour with inhibitor (PP242 0.5 μM; LY294002 20 μM), then APA IgG 5 minutes
Protocol: All experiments were performed in duplicates.
Western blots were performed as previously described^28. […] Images were acquired using Fusion FX7 system (Vilber Loumart) and analysed using Bio-1D software (Vilber Loumart).

CC(C)n1nc(-c2cc3cc(O)ccc3[nH]2)c2c(N)ncnc21 [PP242]
APA-induced AKT phosphorylation / activation of the AKT pathway: completely abolished
